# Out of some 1,100 compounds screened, fewer than 10 were called active. Roughly 6% stayed inconclusive and do not appear here. The call rests on the fitted dose curve; in most records, active means well fitted cell-killing curve with a large enough effect; inconclusive means small, poorly fitted or top-dose-only effect; inactive means flat fitted curve, though single readings scatter. Some of the results follow.
# Experiment: qHTS of Nrf2 Activators: Hit Validation in Cytotox Assay;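 further: compound exposure lasted 24 hours before the ATP readout; 0% is about no effect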
# Conditions: Cell viability counter-screen for Nrf2 activator hits; series mostly up to 46.1 µM; activity change, negative = cytotoxicity: at the top concentration
# Summary of the method: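 AREc32_fluc cells plated overnight, then treated at 7 concentrations for 24 h at 37 °C. Viability from intracellular ATP by CellTiter-Glo luminescence after 30 min at room temperature; cytotoxic compounds flagged active.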
row,SMILES,"activity change, negative = cytotoxicity"
1,O=C(CCCN1C(=O)/C(=C\c2cccc(Br)c2)SC1=S)Nc1cccnc1,inactive: 3.74%
2,O=c1nc2c(-c3ccccc3F)n[nH]n2c2ccccc12,inactive: -3.43%
3,COc1cc(C=C2Cc3ccccc3C2=O)cc(OC)c1OC,inactive: -0.755%
4,CCOC(=O)N1CCc2c(sc3c2C(=O)NC(c2ccccc2)N3)C1 (configuration not stated),inactive: -11.2%
5,O=C1S/C(=C\C=C\c2ccco2)C(=O)N1c1ccc(O)cc1,inactive: -15.4%
6,Cc1csc2c(=O)sc(NC(=O)c3ccc(F)cc3Cl)nc12,inactive: 4.3%
7,Cc1cc(C)cc(NC(=O)Nc2cccs2)c1,inactive: 0.303%
8,CCOC(=O)N/N=C\C=C\c1ccco1,inactive: 2.28%
9,Cc1sc2c(c1C)C(=O)NC(c1ccccc1F)N2 (configuration not stated),inactive: 5.03%
10,O=C(Nc1ccc(Cl)c(S(=O)(=O)N2CCOCC2)c1)c1cccs1,inactive: -20.6%
11,O=C(N/N=C/c1ccsc1)c1ccc2ccccc2n1,inactive: 5.15%
12,O=C1C(=Cc2ccccc2[N+](=O)[O-])Cc2ccccc21,inactive: -13.3%
13,CC(=O)N1CCc2c(sc(NC(=O)CCS(=O)(=O)c3ccccc3)c2C#N)C1,inactive: -0.748%
14,CC(=O)Nc1cc(-c2ccsc2)cn2c(-c3ccc(F)cc3)cnc12,inactive: -5.25%
15,C=CCc1cccc(C=Nc2cc(Br)ccc2O)c1O,inactive: -22%
16,Cc1cccc(NC(=O)Nc2ccc(Br)cc2)n1,inactive: 2.75%
17,O=c1cc(-c2ccccc2Cl)oc2c(Br)ccc(O)c12,inactive: -1.03%
18,Fc1ccccc1-c1nc(-c2ccc(Cl)cc2)no1,inactive: -0.963%
19,c1ccc(-c2nc3c4ccccc4ccn3c2Cc2ccsc2)cc1,inactive: -15.8%
20,Clc1ccc(Br)cc1-c1nc(-c2ccncc2)no1,inactive: 2.28%
21,CC(C)(C)c1csc(NC(=O)CCS(=O)(=O)c2ccc(F)cc2)n1,inactive: 9.8%
22,O=C(Nc1nnc(-c2ccccc2F)s1)C1CCCO1 (configuration not stated),inactive: -0.232%
23,Cc1cc(NC(=O)CN2CCC(O)CC2)nc2c1c(=O)oc1ccccc12,inactive: 3.07%
24,O=C(Nc1nnc(-c2cccs2)s1)C1CC1,inactive: -3.55%
25,Cc1sc2ncnc(Sc3nnnn3-c3ccccc3)c2c1C,inactive: -9.81%
26,O=C(N/N=C/C=C/c1ccco1)c1cccc([N+](=O)[O-])c1,inactive: 6.02%

row,SMILES,"activity change, negative = cytotoxicity"
1,Cc1nc(NC(=O)/C=C/c2ccccc2)n[nH]1,inactive: 5.25%
2,Cc1ccsc1/C=N/N=C1\C(=O)Nc2ccccc21,inactive: -12.4%
3,CCCCC1C(=O)N(c2ccccc2)N(c2ccc(O)cc2)C1=O (configuration not stated),inactive: 5.09%
4,O=C(COc1cccnc1[N+](=O)[O-])Nc1cccc2ccccc12,inactive: -1.49%
5,CC(=O)c1sc2nc(-c3cccs3)cc(C(F)(F)F)c2c1N,inactive: -2.42%
6,O=[N+]([O-])c1ccc(Cl)cc1C=NNc1ccccn1,inactive: -2.4%
7,Cc1c(Cl)cccc1NC(=S)NC(=O)c1ccccc1,inactive: -23.4%
8,Clc1ccc(/C=N/Nc2nnc(Cl)c3ccccc23)cc1,inactive: -26.5%
9,O=C(CSc1nccc(-c2cccs2)n1)Nc1cccc(Cl)c1Cl,inactive: -0.107%
10,Oc1ccccc1Nc1nc2ccccc2n2nnnc12,inactive: -2.36%
11,CSC1=NC(C)(C)C=C(/C=C/c2ccc(Cl)cc2)N1,inactive: -20.3%
12,Nc1c(Cl)cc(N=Nc2ccccc2)cc1Cl,inactive: -1.01%
13,COc1ccc(N(CCCN2C(=O)c3cccc4cccc(c34)C2=O)C(=O)c2cccc(OC)c2)cc1,inactive: -1.97%
14,O=C(N/N=C/c1ccc(Br)s1)c1cccs1,inactive: -28.6%
15,O=c1c2ccccc2oc2cc(Br)ccc12,inactive: -0.78%
16,COc1ccc(C)c2sc(NC(=O)CCS(=O)(=O)c3ccccc3)nc12,inactive: 8.79%
17,Cc1c(CN(C)C)c2c(n1C)C(=O)c1ccc(Br)cc1-2,inactive: 10.2%
18,COc1cccc(NC(=O)c2cc(Cl)nnc2Cl)c1,inactive: -1.13%
19,c1ccc(N2CC3COc4ccccc4C3=N2)cc1 (configuration not stated),inactive: 4.77%
20,COc1ccccc1NC(=O)CSc1ccc(-c2ccco2)nn1,inactive: 4.85%
21,CN(Cc1ccccc1)C(=O)c1ccc([N+](=O)[O-])o1,inactive: -27.9%
22,CC(C)(C)/C(O)=C/c1nc2cc(Cl)ccc2oc1=O,inactive: 1.31%
23,Cc1cc(C)cc(NC(=O)/C=C/c2ccc([N+](=O)[O-])s2)c1,inactive: 3.51%
24,O=C(Cn1cnc2scc(-c3cccc([N+](=O)[O-])c3)c2c1=O)NCc1ccco1,inactive: -1.79%
25,CC(=O)Nc1cc2oc3ccccc3c2cc1[N+](=O)[O-],inactive: 0.886%
26,O=c1[nH]c(/C=C/c2ccccc2[N+](=O)[O-])nc2ccccc12,inactive: 0.48%

row,SMILES,"activity change, negative = cytotoxicity"
1,CC(=O)COc1ccc2c(c1C)O/C(=C\c1ccco1)C2=O,inactive: 2.13%
2,COC(=O)C1=C(C)NC(=O)/C1=C\c1ccco1,inactive: -7.1%
3,O=C(NC(=S)Nc1ccccc1O)c1ccccc1Cl,inactive: 8.07%
4,O=C(COC(=O)/C=C/c1ccco1)Nc1ccc(F)cc1Cl,inactive: 1.23%
5,COC(=O)c1c(NC(=O)c2ccccc2)sc(C(N)=O)c1C,inactive: 2.59%
6,CS(=O)(=O)Nc1ccc(C(=O)Nc2cccc([N+](=O)[O-])c2)cc1,inactive: -7.34%
7,O=c1oc2ccc(Br)cc2cc1-c1nc2ccccc2o1,inactive: 0.471%
8,COc1cc(Cl)cc(/C=C/c2ccc3cccc(O)c3n2)c1OC,inactive: -0.829%
9,O=C(N/N=C/C=C/c1ccco1)c1cnccn1,inactive: 6.3%
10,COc1ccccc1NC(=O)C(=O)Nc1ccccn1,inactive: -2.4%
11,c1ccc(CNc2nc(NCc3ccco3)nc(N3CCOCC3)n2)cc1,inactive: 0.715%
12,O=c1cc(-c2ccccc2)oc2ccc(Cl)cc12,inactive: 2.11%
13,O=S(=O)(c1ccc(F)cc1)c1snnc1-c1ccccc1,inactive: 1.49%
14,Cc1ccc(S(=O)(=O)c2nc(S(C)(=O)=O)sc2N2CCC3(CC2)OCCO3)cc1,inactive: -1.38%
15,O=CNc1c(Cl)cc2c(c1Cl)Cc1cc([N+](=O)[O-])ccc1-2,inactive: 4.06%
16,O=[N+]([O-])c1ccc(/C=N/Nc2ccc3ccccc3c2)o1,inactive: -19.5%
17,O=C(CN1CC(=O)Oc2ccccc21)OCC(=O)c1ccc(F)cc1,inactive: 2.33%
18,CN(C)c1oc(/C=C/c2ccccc2)nc1C#N,inactive: -1.36%
19,CN(C)CCN(C(=O)/C=C/c1cccs1)c1nc2ccc(F)cc2s1,inactive: -13.7%
20,c1ccc(N=NC2=NN(c3ccccc3)CS2)cc1,inactive: -23.7%
21,O=c1cc(-c2cccc(Br)c2)oc2cccc(O)c12,inactive: -2.77%
22,CCc1nn2c(-c3ccco3)ccnc2c1-c1ccccc1,inactive: -2.57%
23,CCCNc1ccc(-c2nc(-c3ccco3)no2)cc1[N+](=O)[O-],inactive: 2.86%
24,N#C/C(=C\C=C\c1ccccc1[N+](=O)[O-])C(=O)NC1CCCCC1,inactive: -13.2%
25,C(=N/n1c2ccccc2c2ccccc21)/c1ccco1,inactive: 1.19%

# A run of entries of the results above, for reference:
row,SMILES,"activity change, negative = cytotoxicity"
19,c1ccc(-c2nc3c4ccccc4ccn3c2Cc2ccsc2)cc1,inactive: -15.8%
20,Clc1ccc(Br)cc1-c1nc(-c2ccncc2)no1,inactive: 2.28%
21,CC(C)(C)c1csc(NC(=O)CCS(=O)(=O)c2ccc(F)cc2)n1,inactive: 9.8%
22,O=C(Nc1nnc(-c2ccccc2F)s1)C1CCCO1 (configuration not stated),inactive: -0.232%

# Reference: PubChem BioAssay AID651595 (National Center for Advancing Translational Sciences (NCATS), 2012)
